No constants are given. Whether binding was seen depends on the method and setting. Binding seen in cells or lysates may run through a third protein. Binding can be weak; no strength is given. Where a sequence is shown, tags or fusion partners need not be part of it. Values belong to the molecule of their own block, whether it stands above or below them.
Columns and labels:
[1] = molecular target: T1, FLAG-tagged Ballchen (BALL) (Drosophila) (UniProt Q7KRY6); test: co-IP
T1 sequence: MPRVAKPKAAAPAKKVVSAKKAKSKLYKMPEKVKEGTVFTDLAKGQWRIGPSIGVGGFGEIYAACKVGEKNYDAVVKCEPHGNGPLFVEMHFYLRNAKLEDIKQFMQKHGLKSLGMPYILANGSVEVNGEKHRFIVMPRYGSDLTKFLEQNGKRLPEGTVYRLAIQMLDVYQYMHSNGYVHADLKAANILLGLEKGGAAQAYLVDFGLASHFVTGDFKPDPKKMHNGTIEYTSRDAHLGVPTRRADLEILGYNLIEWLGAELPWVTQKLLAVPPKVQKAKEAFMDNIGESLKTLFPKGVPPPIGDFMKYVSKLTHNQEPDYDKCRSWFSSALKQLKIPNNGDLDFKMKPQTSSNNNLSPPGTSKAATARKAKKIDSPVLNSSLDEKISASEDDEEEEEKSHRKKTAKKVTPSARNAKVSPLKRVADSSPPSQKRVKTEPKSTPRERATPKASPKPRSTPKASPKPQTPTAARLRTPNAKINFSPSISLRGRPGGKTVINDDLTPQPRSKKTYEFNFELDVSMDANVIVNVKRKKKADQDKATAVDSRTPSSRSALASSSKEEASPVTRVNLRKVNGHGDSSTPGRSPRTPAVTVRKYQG

[2] = molecular target: CREB binding protein (CBP) (Drosophila (endogenous in S2 cells)); test: co-IP

binding [1]: binds
Molecule: CREB binding protein (CBP) (Drosophila (endogenous in S2 cells)) (enzyme)

binding [2]: binds
B1: FLAG-tagged Ballchen (BALL) (enzyme, UniProt Q7KRY6 1-599)
chain: T1 sequence

Source: publication doi:10.1101/2021.07.02.450821
